# Source: the supplement of paper PMC12823440, “Inhibitors supercharge kinase turnover through native proteolytic circuits” (Nature, 2025)
# The chains behind the UniProt entries cited, without tags or fusion partners. Where a name states a change or a piece, a line headed by the entry shows the natural chain unless it says otherwise.
# UniProt Q13555: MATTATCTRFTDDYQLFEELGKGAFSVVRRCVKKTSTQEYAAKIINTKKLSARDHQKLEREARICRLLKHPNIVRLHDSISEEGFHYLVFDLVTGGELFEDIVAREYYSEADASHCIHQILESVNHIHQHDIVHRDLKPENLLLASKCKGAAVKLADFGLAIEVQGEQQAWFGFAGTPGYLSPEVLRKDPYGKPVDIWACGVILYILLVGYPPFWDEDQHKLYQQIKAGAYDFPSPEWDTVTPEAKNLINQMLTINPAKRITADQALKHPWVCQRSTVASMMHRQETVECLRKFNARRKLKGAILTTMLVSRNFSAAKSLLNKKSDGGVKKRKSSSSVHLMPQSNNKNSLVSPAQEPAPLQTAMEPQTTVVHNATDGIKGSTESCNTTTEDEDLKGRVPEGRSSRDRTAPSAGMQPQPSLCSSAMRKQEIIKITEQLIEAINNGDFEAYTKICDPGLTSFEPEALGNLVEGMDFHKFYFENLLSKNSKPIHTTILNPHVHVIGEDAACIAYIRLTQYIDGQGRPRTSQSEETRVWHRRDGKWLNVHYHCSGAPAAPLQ
# UniProt Q15131: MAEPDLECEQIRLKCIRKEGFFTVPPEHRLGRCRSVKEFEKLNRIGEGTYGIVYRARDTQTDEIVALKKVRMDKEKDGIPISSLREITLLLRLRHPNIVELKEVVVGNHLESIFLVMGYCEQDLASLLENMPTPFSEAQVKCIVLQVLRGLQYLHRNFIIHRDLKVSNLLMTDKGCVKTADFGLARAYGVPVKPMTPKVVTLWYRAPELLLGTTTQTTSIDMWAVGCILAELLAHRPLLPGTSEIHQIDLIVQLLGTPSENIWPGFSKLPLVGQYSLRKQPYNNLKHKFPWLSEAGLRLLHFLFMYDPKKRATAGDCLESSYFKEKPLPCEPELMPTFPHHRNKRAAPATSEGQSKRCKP
# UniProt Q00526: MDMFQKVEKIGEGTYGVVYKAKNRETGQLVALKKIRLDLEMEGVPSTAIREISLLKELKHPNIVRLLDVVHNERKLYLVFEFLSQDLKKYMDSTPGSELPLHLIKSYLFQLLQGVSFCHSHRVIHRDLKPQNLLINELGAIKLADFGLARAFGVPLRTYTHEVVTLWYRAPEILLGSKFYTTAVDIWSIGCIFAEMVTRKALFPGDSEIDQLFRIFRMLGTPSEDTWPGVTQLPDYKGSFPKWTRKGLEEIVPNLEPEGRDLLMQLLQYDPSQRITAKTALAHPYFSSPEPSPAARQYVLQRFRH
# UniProt P11802: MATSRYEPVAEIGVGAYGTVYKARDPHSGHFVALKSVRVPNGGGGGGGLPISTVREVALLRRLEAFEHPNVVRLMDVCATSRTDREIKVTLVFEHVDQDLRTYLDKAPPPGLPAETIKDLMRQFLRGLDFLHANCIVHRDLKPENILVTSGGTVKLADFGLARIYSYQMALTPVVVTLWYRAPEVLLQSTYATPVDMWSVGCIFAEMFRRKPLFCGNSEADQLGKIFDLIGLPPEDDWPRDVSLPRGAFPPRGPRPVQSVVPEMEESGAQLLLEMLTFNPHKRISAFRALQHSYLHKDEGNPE
# UniProt Q00535, whole entry, looked up: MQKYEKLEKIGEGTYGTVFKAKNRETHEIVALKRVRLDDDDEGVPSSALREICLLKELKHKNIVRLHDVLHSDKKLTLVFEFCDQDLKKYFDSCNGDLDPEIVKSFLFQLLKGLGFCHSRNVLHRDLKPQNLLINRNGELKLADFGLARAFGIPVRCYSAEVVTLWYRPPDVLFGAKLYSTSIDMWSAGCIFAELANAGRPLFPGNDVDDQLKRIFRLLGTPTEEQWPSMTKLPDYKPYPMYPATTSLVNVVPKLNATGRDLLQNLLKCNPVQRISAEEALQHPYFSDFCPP
# UniProt Q00534, whole entry: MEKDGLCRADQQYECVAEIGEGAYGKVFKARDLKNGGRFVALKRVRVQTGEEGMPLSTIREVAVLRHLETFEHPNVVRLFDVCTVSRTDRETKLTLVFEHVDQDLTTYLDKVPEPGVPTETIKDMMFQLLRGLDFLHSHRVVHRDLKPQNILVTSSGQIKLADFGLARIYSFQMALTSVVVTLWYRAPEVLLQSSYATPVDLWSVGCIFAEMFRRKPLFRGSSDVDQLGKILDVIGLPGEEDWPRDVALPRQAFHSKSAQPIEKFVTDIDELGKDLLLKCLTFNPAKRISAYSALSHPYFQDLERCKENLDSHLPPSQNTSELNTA
# UniProt P50613: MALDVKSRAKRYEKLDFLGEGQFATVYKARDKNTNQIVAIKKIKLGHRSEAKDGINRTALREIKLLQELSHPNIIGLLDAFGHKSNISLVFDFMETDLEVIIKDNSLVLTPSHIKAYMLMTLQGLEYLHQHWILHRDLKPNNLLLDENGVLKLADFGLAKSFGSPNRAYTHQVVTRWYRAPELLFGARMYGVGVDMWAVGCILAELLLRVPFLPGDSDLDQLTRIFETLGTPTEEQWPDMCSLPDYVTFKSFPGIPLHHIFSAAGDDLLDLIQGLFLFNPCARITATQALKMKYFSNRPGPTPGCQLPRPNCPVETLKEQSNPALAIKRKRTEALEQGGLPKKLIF
# UniProt P50750, whole entry: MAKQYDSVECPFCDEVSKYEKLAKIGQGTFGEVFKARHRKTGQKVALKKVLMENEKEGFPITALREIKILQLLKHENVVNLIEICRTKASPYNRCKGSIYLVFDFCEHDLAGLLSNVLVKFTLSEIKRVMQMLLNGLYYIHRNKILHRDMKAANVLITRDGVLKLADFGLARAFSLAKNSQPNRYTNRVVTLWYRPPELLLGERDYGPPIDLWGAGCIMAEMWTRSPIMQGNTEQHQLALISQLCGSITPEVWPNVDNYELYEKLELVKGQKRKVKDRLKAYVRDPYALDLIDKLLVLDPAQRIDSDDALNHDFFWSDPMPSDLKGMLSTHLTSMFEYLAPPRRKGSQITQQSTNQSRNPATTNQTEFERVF
# UniProt P07333, whole entry: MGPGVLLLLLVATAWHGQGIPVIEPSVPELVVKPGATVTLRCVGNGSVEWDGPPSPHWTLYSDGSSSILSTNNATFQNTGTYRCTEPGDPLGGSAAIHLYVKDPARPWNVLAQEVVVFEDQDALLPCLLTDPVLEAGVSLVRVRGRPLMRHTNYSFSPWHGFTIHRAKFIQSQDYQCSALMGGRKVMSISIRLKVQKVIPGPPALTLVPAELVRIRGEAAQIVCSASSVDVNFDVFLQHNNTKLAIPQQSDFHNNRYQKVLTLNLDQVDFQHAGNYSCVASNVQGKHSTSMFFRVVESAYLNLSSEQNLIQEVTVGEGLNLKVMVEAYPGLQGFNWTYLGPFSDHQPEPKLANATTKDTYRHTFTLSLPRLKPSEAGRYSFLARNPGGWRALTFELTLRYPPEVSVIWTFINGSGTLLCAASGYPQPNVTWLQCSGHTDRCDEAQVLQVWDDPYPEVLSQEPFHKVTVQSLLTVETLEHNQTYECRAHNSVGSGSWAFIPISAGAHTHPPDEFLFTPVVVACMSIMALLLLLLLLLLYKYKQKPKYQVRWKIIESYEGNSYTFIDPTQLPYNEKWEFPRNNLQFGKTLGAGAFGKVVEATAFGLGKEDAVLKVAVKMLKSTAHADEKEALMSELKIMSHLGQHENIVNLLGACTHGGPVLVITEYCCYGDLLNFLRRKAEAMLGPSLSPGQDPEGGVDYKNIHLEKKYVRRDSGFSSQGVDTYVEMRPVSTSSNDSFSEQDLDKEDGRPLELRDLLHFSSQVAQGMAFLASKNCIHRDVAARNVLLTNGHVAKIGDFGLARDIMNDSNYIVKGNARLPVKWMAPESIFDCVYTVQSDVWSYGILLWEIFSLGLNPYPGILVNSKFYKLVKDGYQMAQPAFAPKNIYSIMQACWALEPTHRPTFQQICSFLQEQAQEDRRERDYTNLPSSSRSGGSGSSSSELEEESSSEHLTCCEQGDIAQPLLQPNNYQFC
# UniProt P41240: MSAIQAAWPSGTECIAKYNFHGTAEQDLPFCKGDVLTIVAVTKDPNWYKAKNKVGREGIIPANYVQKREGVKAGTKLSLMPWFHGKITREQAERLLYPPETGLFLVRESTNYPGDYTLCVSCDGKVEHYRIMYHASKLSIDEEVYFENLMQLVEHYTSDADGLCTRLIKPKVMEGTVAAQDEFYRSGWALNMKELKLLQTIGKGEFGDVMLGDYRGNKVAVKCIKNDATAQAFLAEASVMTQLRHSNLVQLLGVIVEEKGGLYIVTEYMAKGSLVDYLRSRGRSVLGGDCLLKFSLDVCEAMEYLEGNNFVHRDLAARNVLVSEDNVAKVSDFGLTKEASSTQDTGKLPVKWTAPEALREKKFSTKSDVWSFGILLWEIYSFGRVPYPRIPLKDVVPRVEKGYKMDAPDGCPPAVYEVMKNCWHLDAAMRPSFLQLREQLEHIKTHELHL
# UniProt P48729: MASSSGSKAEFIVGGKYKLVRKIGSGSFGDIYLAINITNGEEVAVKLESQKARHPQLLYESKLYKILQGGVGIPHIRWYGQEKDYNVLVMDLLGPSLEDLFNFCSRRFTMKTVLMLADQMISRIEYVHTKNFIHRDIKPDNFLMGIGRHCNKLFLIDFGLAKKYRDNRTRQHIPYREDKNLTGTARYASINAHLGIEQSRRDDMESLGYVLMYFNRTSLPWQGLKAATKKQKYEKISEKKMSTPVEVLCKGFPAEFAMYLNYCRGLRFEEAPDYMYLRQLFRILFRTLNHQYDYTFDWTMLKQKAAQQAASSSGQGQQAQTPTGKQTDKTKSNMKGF
# UniProt P48730: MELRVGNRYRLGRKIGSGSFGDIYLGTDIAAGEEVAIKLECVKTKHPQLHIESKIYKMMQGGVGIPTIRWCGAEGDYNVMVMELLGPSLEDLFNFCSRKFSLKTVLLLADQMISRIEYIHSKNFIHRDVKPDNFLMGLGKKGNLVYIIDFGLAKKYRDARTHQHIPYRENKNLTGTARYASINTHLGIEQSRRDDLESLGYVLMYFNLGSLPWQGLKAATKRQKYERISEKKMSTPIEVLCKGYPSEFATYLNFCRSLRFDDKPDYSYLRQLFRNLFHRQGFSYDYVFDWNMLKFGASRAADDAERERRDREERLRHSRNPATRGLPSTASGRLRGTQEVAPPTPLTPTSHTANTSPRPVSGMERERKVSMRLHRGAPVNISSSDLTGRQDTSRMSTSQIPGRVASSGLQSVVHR
# UniProt Q08345: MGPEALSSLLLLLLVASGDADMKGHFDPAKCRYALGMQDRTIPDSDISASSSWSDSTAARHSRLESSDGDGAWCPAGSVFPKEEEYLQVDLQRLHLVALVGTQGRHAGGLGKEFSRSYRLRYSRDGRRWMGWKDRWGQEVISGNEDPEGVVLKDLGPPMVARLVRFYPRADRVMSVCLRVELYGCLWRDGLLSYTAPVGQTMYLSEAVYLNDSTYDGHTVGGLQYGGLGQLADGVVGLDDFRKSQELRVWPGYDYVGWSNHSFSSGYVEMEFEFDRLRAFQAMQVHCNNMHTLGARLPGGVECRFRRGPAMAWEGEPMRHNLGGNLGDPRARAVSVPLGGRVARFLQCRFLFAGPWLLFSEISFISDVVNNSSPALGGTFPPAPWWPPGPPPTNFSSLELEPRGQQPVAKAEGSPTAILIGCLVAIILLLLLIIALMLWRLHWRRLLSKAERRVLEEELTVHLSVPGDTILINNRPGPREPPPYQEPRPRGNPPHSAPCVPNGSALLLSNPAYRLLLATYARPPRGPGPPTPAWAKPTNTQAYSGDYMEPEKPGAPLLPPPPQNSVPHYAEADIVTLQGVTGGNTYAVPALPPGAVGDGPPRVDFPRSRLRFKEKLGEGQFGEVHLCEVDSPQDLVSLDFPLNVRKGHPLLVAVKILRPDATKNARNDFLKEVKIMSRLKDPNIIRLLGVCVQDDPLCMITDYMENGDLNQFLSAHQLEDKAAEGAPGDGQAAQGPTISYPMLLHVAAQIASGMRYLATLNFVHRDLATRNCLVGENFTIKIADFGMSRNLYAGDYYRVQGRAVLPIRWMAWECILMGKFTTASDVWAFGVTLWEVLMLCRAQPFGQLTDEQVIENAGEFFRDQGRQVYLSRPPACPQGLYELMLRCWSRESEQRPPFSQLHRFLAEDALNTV
# UniProt Q9Y463, whole entry, looked up: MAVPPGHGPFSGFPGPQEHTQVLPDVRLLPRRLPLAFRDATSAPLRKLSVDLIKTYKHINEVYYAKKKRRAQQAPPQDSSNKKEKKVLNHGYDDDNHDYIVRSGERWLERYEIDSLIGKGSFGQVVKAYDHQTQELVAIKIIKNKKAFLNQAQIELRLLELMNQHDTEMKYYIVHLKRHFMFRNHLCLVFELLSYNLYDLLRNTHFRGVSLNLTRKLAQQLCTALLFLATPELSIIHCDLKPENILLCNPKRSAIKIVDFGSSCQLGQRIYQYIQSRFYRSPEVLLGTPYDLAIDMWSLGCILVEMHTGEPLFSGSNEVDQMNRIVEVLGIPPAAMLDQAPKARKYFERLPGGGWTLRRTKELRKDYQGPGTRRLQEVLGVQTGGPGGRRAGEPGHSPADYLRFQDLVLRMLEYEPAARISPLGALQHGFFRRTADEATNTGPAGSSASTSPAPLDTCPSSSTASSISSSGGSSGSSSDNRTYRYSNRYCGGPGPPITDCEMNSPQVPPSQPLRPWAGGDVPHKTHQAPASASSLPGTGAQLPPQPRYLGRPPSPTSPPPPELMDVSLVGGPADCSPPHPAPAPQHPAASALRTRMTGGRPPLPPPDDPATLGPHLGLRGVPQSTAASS
# Counter-ions that a name gives are not always drawn. The list shows a part of the results. Hit calls seldom repeat between salt and free forms of one compound.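 In K562 cells expressing nanoluciferase-fused kinases, luminescence was recorded at 4 h intervals between 2 and 18 h, normalized as percent of control with DMSO at 100% and a positive control at 0%. A significant (2 sigma) signal drop marks a time point as decreased. The authors' rule for a hit is not shown and takes in more than the number of time points.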
# Legend:
# Assay in all cases: kinase-Nluc reporter destabilization hit call (1 = scored as downregulated) (binary); higher = compound decreases kinase abundance
# Details in all cases: K562, 2-18 h
# BRAF_V600E = tested on: BRAF_V600E
# BTK = BTK (UniProt Q06187)
# CAMK2A = CAMK2A (UniProt Q9UQM7)
# CAMK2G = CAMK2G (UniProt Q13555)
# CDK10 = CDK10 (UniProt Q15131)
# CDK2 = CDK2 (UniProt P24941)
# CDK3 = CDK3 (UniProt Q00526)
# CDK4 = CDK4 (UniProt P11802)
# CDK5 = CDK5 (UniProt Q00535)
# CDK6 = CDK6 (UniProt Q00534)
# CDK7 = CDK7 (UniProt P50613)
# CDK9 = CDK9 (UniProt P50750)
# CHEK2 = CHEK2 (UniProt O96017)
# CSF1R = CSF1R (UniProt P07333)
# CSK = CSK (UniProt P41240)
# CSNK1A1 = CSNK1A1 (UniProt P48729)
# CSNK1D = CSNK1D (UniProt P48730)
# DDR1 = DDR1 (UniProt Q08345)
# DYRK1B = DYRK1B (UniProt Q9Y463)
# DYRK2 = DYRK2 (UniProt Q92630)
SMILES,kinase-Nluc reporter destabilization hit call (BRAF_V600E; 10 µM),kinase-Nluc reporter destabilization hit call (BTK; 10 µM),kinase-Nluc reporter destabilization hit call (CAMK2A; 10 µM),kinase-Nluc reporter destabilization hit call (CAMK2G; 10 µM),kinase-Nluc reporter destabilization hit call (CDK10; 10 µM),kinase-Nluc reporter destabilization hit call (CDK2; 10 µM),kinase-Nluc reporter destabilization hit call (CDK3; 10 µM),kinase-Nluc reporter destabilization hit call (CDK4; 10 µM),kinase-Nluc reporter destabilization hit call (CDK5; 10 µM),kinase-Nluc reporter destabilization hit call (CDK6; 10 µM),kinase-Nluc reporter destabilization hit call (CDK7; 10 µM),kinase-Nluc reporter destabilization hit call (CDK9; 10 µM),kinase-Nluc reporter destabilization hit call (CHEK2; 10 µM),kinase-Nluc reporter destabilization hit call (CSF1R; 10 µM),kinase-Nluc reporter destabilization hit call (CSK; 10 µM),kinase-Nluc reporter destabilization hit call (CSNK1A1; 10 µM),kinase-Nluc reporter destabilization hit call (CSNK1D; 10 µM),kinase-Nluc reporter destabilization hit call (DDR1; 10 µM),kinase-Nluc reporter destabilization hit call (DYRK1B; 10 µM),kinase-Nluc reporter destabilization hit call (DYRK2; 10 µM),kinase-Nluc reporter destabilization hit call (BRAF_V600E; 2.5 µM),kinase-Nluc reporter destabilization hit call (BTK; 2.5 µM),kinase-Nluc reporter destabilization hit call (CAMK2A; 2.5 µM),kinase-Nluc reporter destabilization hit call (CAMK2G; 2.5 µM),kinase-Nluc reporter destabilization hit call (CDK10; 2.5 µM),kinase-Nluc reporter destabilization hit call (CDK2; 2.5 µM),kinase-Nluc reporter destabilization hit call (CDK3; 2.5 µM),kinase-Nluc reporter destabilization hit call (CDK4; 2.5 µM),kinase-Nluc reporter destabilization hit call (CDK5; 2.5 µM),kinase-Nluc reporter destabilization hit call (CDK6; 2.5 µM),kinase-Nluc reporter destabilization hit call (CDK7; 2.5 µM),kinase-Nluc reporter destabilization hit call (CDK9; 2.5 µM),kinase-Nluc reporter destabilization hit call (CHEK2; 2.5 µM),kinase-Nluc reporter destabilization hit call (CSF1R; 2.5 µM),kinase-Nluc reporter destabilization hit call (CSK; 2.5 µM),kinase-Nluc reporter destabilization hit call (CSNK1A1; 2.5 µM),kinase-Nluc reporter destabilization hit call (CSNK1D; 2.5 µM),kinase-Nluc reporter destabilization hit call (DDR1; 2.5 µM),kinase-Nluc reporter destabilization hit call (DYRK1B; 2.5 µM),kinase-Nluc reporter destabilization hit call (DYRK2; 2.5 µM)
O=C(c1nn(-c2ccc(CN3CCOCC3)cc2)c2c1CS(=O)(=O)c1c(F)cccc1-2)N1CCOCC1,inactive: 0,inactive: 0,inactive: 0,inactive: 0,inactive: 0,inactive: 0,inactive: 0,inactive: 0,inactive: 0,inactive: 0,inactive: 0,inactive: 0,inactive: 0,inactive: 0,inactive: 0,inactive: 0,inactive: 0,inactive: 0,inactive: 0,inactive: 0,–,–,–,–,–,–,–,–,–,–,–,–,–,–,–,–,–,–,–,–
Nc1cncc(-c2cn3ccnc3c(Nc3ccc(N4CCN(C5COC5)CC4)cc3)n2)n1 [Lanraplenib (succinate)],inactive: 0,inactive: 0,inactive: 0,inactive: 0,inactive: 0,inactive: 0,inactive: 0,inactive: 0,inactive: 0,inactive: 0,inactive: 0,inactive: 0,inactive: 0,inactive: 0,inactive: 0,inactive: 0,inactive: 0,inactive: 0,inactive: 0,inactive: 0,–,–,–,–,–,–,–,–,–,–,–,–,–,–,–,–,–,–,–,–
CS(=O)(=O)N1CCN(Cc2cc3nc(-c4cccc5[nH]ncc45)nc(N4CCOCC4)c3s2)CC1 [Pictilisib],inactive: 0,inactive: 0,inactive: 0,inactive: 0,inactive: 0,inactive: 0,inactive: 0,inactive: 0,inactive: 0,inactive: 0,inactive: 0,inactive: 0,inactive: 0,inactive: 0,inactive: 0,inactive: 0,inactive: 0,inactive: 0,inactive: 0,inactive: 0,–,–,–,–,–,–,–,–,–,–,–,–,–,–,–,–,–,–,–,–
Cn1ncc(Cl)c1-c1cc(C(=O)N[C@H](CN)Cc2cccc(F)c2)sc1Cl [Afuresertib (hydrochloride)],inactive: 0,inactive: 0,inactive: 0,inactive: 0,inactive: 0,inactive: 0,inactive: 0,inactive: 0,inactive: 0,inactive: 0,inactive: 0,inactive: 0,inactive: 0,inactive: 0,inactive: 0,inactive: 0,inactive: 0,inactive: 0,inactive: 0,inactive: 0,–,–,–,–,–,–,–,–,–,–,–,–,–,–,–,–,–,–,–,–
C/C=C1\C(=O)C[C@H]2[C@@H]3CCC4=CC(=O)CC[C@]4(C)[C@H]3CC[C@]12C [(Z)-Guggulsterone],inactive: 0,inactive: 0,inactive: 0,inactive: 0,inactive: 0,inactive: 0,inactive: 0,inactive: 0,inactive: 0,inactive: 0,inactive: 0,inactive: 0,inactive: 0,inactive: 0,inactive: 0,inactive: 0,inactive: 0,inactive: 0,inactive: 0,inactive: 0,–,–,–,–,–,–,–,–,–,–,–,–,–,–,–,–,–,–,–,–
FC(F)(F)c1ccc(CNc2ccc(Cc3c[nH]c4ncc(Cl)cc34)cn2)cn1 [Pexidartinib],inactive: 0,inactive: 0,inactive: 0,inactive: 0,inactive: 0,inactive: 0,inactive: 0,inactive: 0,inactive: 0,inactive: 0,inactive: 0,inactive: 0,inactive: 0,inactive: 0,inactive: 0,inactive: 0,inactive: 0,inactive: 0,inactive: 0,inactive: 0,–,–,–,–,–,–,–,–,–,–,–,–,–,–,–,–,–,–,–,–
CC(C)Oc1ccc(-c2nn([C@@H](C)c3oc4ccc(F)cc4c(=O)c3-c3cccc(F)c3)c3ncnc(N)c23)cc1F [Umbralisib (hydrochloride)],–,–,–,–,–,–,–,–,–,–,–,–,–,–,–,–,–,–,–,–,inactive: 0,inactive: 0,inactive: 0,inactive: 0,inactive: 0,inactive: 0,inactive: 0,inactive: 0,inactive: 0,inactive: 0,inactive: 0,inactive: 0,inactive: 0,inactive: 0,inactive: 0,inactive: 0,inactive: 0,inactive: 0,inactive: 0,inactive: 0
CN1CCCN(C(=O)c2cccc(-c3ccc(/C=C4/C(=O)Nc5ccc(Cl)cc54)o3)c2)CC1 [CX-6258 (hydrochloride hydrate)],–,–,–,–,–,–,–,–,–,–,–,–,–,–,–,–,–,–,–,–,inactive: 0,inactive: 0,inactive: 0,inactive: 0,inactive: 0,inactive: 0,inactive: 0,inactive: 0,inactive: 0,inactive: 0,inactive: 0,inactive: 0,inactive: 0,inactive: 0,inactive: 0,inactive: 0,inactive: 0,inactive: 0,inactive: 0,inactive: 0
C=CC(=O)Nc1cc(Nc2nccc(-c3cn(C4CC4)c4ccccc34)n2)c(OC)cc1N(C)CCN(C)C [Almonertinib],–,–,–,–,–,–,–,–,–,–,–,–,–,–,–,–,–,–,–,–,inactive: 0,inactive: 0,inactive: 0,inactive: 0,inactive: 0,inactive: 0,inactive: 0,inactive: 0,inactive: 0,inactive: 0,inactive: 0,inactive: 0,inactive: 0,inactive: 0,inactive: 0,inactive: 0,inactive: 0,inactive: 0,inactive: 0,inactive: 0
Cn1cc(-c2cnc3ccc4ccc(CS(=O)(=O)NCc5ccccn5)cc4c(=O)c3c2)cn1 [MK-8033 (hydrochloride)],inactive: 0,inactive: 0,inactive: 0,inactive: 0,inactive: 0,inactive: 0,inactive: 0,inactive: 0,inactive: 0,inactive: 0,inactive: 0,inactive: 0,inactive: 0,inactive: 0,inactive: 0,inactive: 0,inactive: 0,inactive: 0,inactive: 0,inactive: 0,–,–,–,–,–,–,–,–,–,–,–,–,–,–,–,–,–,–,–,–
CN1CCCN(C(=O)c2cccc(-c3ccc(/C=C4/C(=O)Nc5ccc(Cl)cc54)o3)c2)CC1,–,–,–,–,–,–,–,–,–,–,–,–,–,–,–,–,–,–,–,–,inactive: 0,inactive: 0,inactive: 0,inactive: 0,inactive: 0,inactive: 0,inactive: 0,inactive: 0,inactive: 0,inactive: 0,inactive: 0,inactive: 0,inactive: 0,inactive: 0,inactive: 0,inactive: 0,inactive: 0,inactive: 0,inactive: 0,inactive: 0
COc1cc2nccc(Nc3cc(OC)c(OC)c(OC)c3)c2cc1OC [GAK inhibitor 49],inactive: 0,inactive: 0,inactive: 0,inactive: 0,inactive: 0,inactive: 0,inactive: 0,inactive: 0,inactive: 0,inactive: 0,inactive: 0,inactive: 0,inactive: 0,inactive: 0,inactive: 0,inactive: 0,inactive: 0,inactive: 0,inactive: 0,inactive: 0,–,–,–,–,–,–,–,–,–,–,–,–,–,–,–,–,–,–,–,–
C#Cc1cccc(Nc2ncnc3cc4c(cc23)OCCOCCOCCO4)c1 [Icotinib],inactive: 0,inactive: 0,inactive: 0,inactive: 0,inactive: 0,inactive: 0,inactive: 0,inactive: 0,inactive: 0,inactive: 0,inactive: 0,inactive: 0,inactive: 0,inactive: 0,inactive: 0,inactive: 0,inactive: 0,inactive: 0,inactive: 0,inactive: 0,–,–,–,–,–,–,–,–,–,–,–,–,–,–,–,–,–,–,–,–
C[S+]([O-])c1ccc(-c2nc(-c3ccc(F)cc3)c(-c3ccncc3)[nH]2)cc1 (stereo not given),inactive: 0,inactive: 0,inactive: 0,inactive: 0,inactive: 0,inactive: 0,inactive: 0,inactive: 0,inactive: 0,inactive: 0,inactive: 0,inactive: 0,inactive: 0,inactive: 0,inactive: 0,inactive: 0,inactive: 0,inactive: 0,inactive: 0,inactive: 0,–,–,–,–,–,–,–,–,–,–,–,–,–,–,–,–,–,–,–,–
C[C@H](Nc1cc(-c2cnn(C)c2)cc(Nc2cnccn2)n1)c1ccc(F)cc1 [Ilginatinib],–,–,–,–,–,–,–,–,–,–,–,–,–,–,–,–,–,–,–,–,inactive: 0,inactive: 0,inactive: 0,inactive: 0,inactive: 0,inactive: 0,inactive: 0,inactive: 0,inactive: 0,inactive: 0,inactive: 0,inactive: 0,inactive: 0,inactive: 0,inactive: 0,inactive: 0,inactive: 0,inactive: 0,inactive: 0,inactive: 0
C[C@H](Nc1cc(-c2cnn(C)c2)cc(Nc2cnccn2)n1)c1ccc(F)cc1 [Ilginatinib hydrochloride],–,–,–,–,–,–,–,–,–,–,–,–,–,–,–,–,–,–,–,–,inactive: 0,inactive: 0,inactive: 0,inactive: 0,inactive: 0,inactive: 0,inactive: 0,inactive: 0,inactive: 0,inactive: 0,active: 1,inactive: 0,inactive: 0,inactive: 0,inactive: 0,inactive: 0,inactive: 0,inactive: 0,inactive: 0,active: 1
COc1ccc2c(c1)C(c1ccc(F)cc1)=C(CN1CCCC1)CO2,inactive: 0,inactive: 0,inactive: 0,inactive: 0,inactive: 0,inactive: 0,inactive: 0,inactive: 0,inactive: 0,inactive: 0,inactive: 0,inactive: 0,inactive: 0,inactive: 0,inactive: 0,inactive: 0,inactive: 0,inactive: 0,inactive: 0,inactive: 0,–,–,–,–,–,–,–,–,–,–,–,–,–,–,–,–,–,–,–,–
Cc1cccc(/C=N/Nc2cc(N3CCOCC3)nc(OCCc3ccccn3)n2)c1 [Apilimod],–,–,–,–,–,–,–,–,–,–,–,–,–,–,–,–,–,–,–,–,inactive: 0,inactive: 0,inactive: 0,inactive: 0,inactive: 0,inactive: 0,inactive: 0,inactive: 0,inactive: 0,inactive: 0,inactive: 0,inactive: 0,inactive: 0,inactive: 0,inactive: 0,inactive: 0,inactive: 0,inactive: 0,inactive: 0,inactive: 0

# A few values from the list.
# kinase-Nluc reporter destabilization hit call (CDK10; 2.5 µM) with C[C@H](Nc1cc(-c2cnn(C)c2)cc(Nc2cnccn2)n1)c1ccc(F)cc1 [Ilginatinib hydrochloride] reads inactive: 0
# kinase-Nluc reporter destabilization hit call (BRAF_V600E; 2.5 µM) with Cc1cccc(/C=N/Nc2cc(N3CCOCC3)nc(OCCc3ccccn3)n2)c1 [Apilimod] reads inactive: 0
